# From patent publication US20160296591A1, “COMPOSITIONS AND METHODS FOR TREATMENT OF BDNF-RELATED CONDITIONS” (TARIX PHARMACEUTICALS LTD., priority 2013, published 2016)
# Some of these results come from one statement about several compounds together.
# Tested on: BDNF
# Assay: BDNF production in SK-N-SH human neuronal cells
# Format: cell-based
# Conditions: peptide 1×10^−7M, 24 hours
row,Compound,BDNF expression above control levels
1,CCC(C)C1NC(=O)C(NC(=O)C(NC(=O)C(CCCNC(=N)N)NC(=O)C(N)CC(=O)O)C(C)C)CSCC(C(=O)O)NC(=O)C(Cc2c[nH]cn2)NC1=O (stereo not drawn) [Pancyte],≥ 20%
2,Asp^1-Arg^2-Val^3-Tyr^4-Ile^5-His^6-Pro^7 [Ang (1-7)],≥ 20%
3,"TXA301: angiotensin (1-7) peptide tested; not defined in the text, possibly linear SEQ ID NO: 6 (DRVSIHC)",≥ 20%
